Counter-ions that a name gives are not always drawn. Some of the results follow. Repeats are few or missing, and single values can be far off.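 Primary human fetal astrocytes engulfed labelled rat cortical synaptosomes, measured as a red/green ratio corrected for calcein live-cell signal and scaled to the plate median. Toxicity meant calcein falling over 30%; decreased phagocytosis meant below 70% of median above 5 µM.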
Columns and labels:
Human fetal astrocytes [1] = assay: loss of total cells relative to no-compound high-control median (toxicity); higher = more toxic (fewer cells); details: 24 h
Human fetal astrocytes [2] = assay: synaptosome phagocytosis (pHrodo/calcein intensity ratio) relative to plate median of data wells; higher = more phagocytosis; details: 24 h

Compound | loss of total cells (Human fetal astrocytes [1]; 1.39 µM) | loss of total cells (Human fetal astrocytes [1]; 2.78 µM) | loss of total cells (Human fetal astrocytes [1]; 5.56 µM) | loss of total cells (Human fetal astrocytes [1]; 11.11 µM) | loss of total cells (Human fetal astrocytes [1]; 22.22 µM) | synaptosome phagocytosis (Human fetal astrocytes [2]; 1.39 µM) | synaptosome phagocytosis (Human fetal astrocytes [2]; 2.78 µM) | synaptosome phagocytosis (Human fetal astrocytes [2]; 5.56 µM) | synaptosome phagocytosis (Human fetal astrocytes [2]; 11.11 µM) | synaptosome phagocytosis (Human fetal astrocytes [2]; 22.22 µM)
CCCCCCCCCC[Si](C)(C)CCC(=O)NC(Cc1ccc(C)cc1)c1ccccc1 (stereo not given) [Sandoz 58-035] | -11.4% | -18.3% | -15.2% | -15.7% | 6.4% | 84.4% | 62.8% | 89.2% | 93.1% | 85.1%
CC(C)(Sc1ccc(CCN(CCCCC2CCCCC2)C(=O)NC2CCCCC2)cc1)C(=O)O | 1.3% | -12.8% | -0.8% | -17.5% | 0.8% | 110% | 104% | 85.7% | 97.2% | 73.7%
N#C/C(=C\c1ccc(O)c(O)c1)C(=O)c1ccc(O)c(O)c1 [Tyrphostin AG 538] | -0.3% | -8.1% | -2.8% | -0.4% | -12.3% | 125% | 122% | 111% | 80.3% | 109%
NCCCCNS(=O)(=O)c1ccc2c(Cl)cccc2c1 | -14.7% | -12.6% | -9.7% | 1.3% | -1.1% | 91.1% | 90.3% | 100% | 111% | 107%
CN1CCc2cc(Cl)c(O)cc2[C@@H](c2ccccc2)C1 | 4.6% | -22.2% | 1.6% | -18.4% | -8.8% | 99.9% | 101% | 96.6% | 99.5% | 94.4%
COc1ccc2c(c1)c(CC(=O)O)c(C)n2C(=O)c1ccccc1 [1-benzoyl-5-methoxy-2-methylindole-3-acetic acid] | -12.8% | -19.2% | -18% | 6.7% | -5.6% | 78.3% | 74.1% | 93.7% | 132% | 84.9%
CC(/C=C/c1cccc(Oc2ccc(F)cc2)c1)N(O)C(N)=O (stereo not given) | 0.7% | -12% | -8.8% | -15.7% | 21.4% | 150% | 137% | 98.5% | 87% | 80%
C[C@]12CCC(=O)C=C1CC[C@@H]1[C@@H]2CC[C@@]2(C)[C@H]1CC[C@]2(O)C(=O)CO [Cortexolone] | -2.2% | -7.5% | -27% | -22.6% | -37% | 92.2% | 101% | 84.9% | 112% | 93.6%
COc1cc2nc(N3CCN(C(=O)OCc4ccccc4)[C@H](C(=O)NC(C)(C)C)C3)nc(N)c2cc1OC | -51.2% | -4.5% | -20.8% | -6.5% | -37.9% | 107% | 80.5% | 85.4% | 110% | 111%
COc1nc(C)nc(Cl)c1NC1=NCCN1 [Moxonidine hydrochloride] | -0.5% | 14% | 8% | 16.2% | 17.8% | 118% | 128% | 128% | 131% | 167%

One compound at a time (already shown). Order of values: loss of total cells (Human fetal astrocytes [1]; 1.39 µM)	loss of total cells (Human fetal astrocytes [1]; 2.78 µM)	loss of total cells (Human fetal astrocytes [1]; 5.56 µM)	loss of total cells (Human fetal astrocytes [1]; 11.11 µM)	loss of total cells (Human fetal astrocytes [1]; 22.22 µM)	synaptosome phagocytosis (Human fetal astrocytes [2]; 1.39 µM)	synaptosome phagocytosis (Human fetal astrocytes [2]; 2.78 µM)	synaptosome phagocytosis (Human fetal astrocytes [2]; 5.56 µM)	synaptosome phagocytosis (Human fetal astrocytes [2]; 11.11 µM)	synaptosome phagocytosis (Human fetal astrocytes [2]; 22.22 µM)
CCCCCCCCCC[Si](C)(C)CCC(=O)NC(Cc1ccc(C)cc1)c1ccccc1 (stereo not given) [Sandoz 58-035] as listed: -11.4%	-18.3%	-15.2%	-15.7%	6.4%	84.4%	62.8%	89.2%	93.1%	85.1%
N#C/C(=C\c1ccc(O)c(O)c1)C(=O)c1ccc(O)c(O)c1 [Tyrphostin AG 538] as listed: -0.3%	-8.1%	-2.8%	-0.4%	-12.3%	125%	122%	111%	80.3%	109%

— the supplement of paper PMC10689618
